Assay results reported in the supplement of paper PMC6078165.
Values are relative to the signal before dosing, not to a vehicle control; the signal also falls without drug.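 Labels refer to human fibroblasts, largely primary: uterine (C12385, HUF), lung (H6013), bone (Hs27A), adrenal (HADF), skin (WS1), plus mammary HMF and breast cancer-associated Hs343T. Cancer lines are basal-like or mesenchymal-like triple-negative breast cancer. The paper counts as hits responses shifting over 3x the replicate standard deviation. The tissue of the other fibroblasts is not given here.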 Numbered stars: 1 amine (or outer) side, 2 acyl side, 3 side chain; on linkers, the order of the positions; unused ones are H or OH. Bridge positions count the residues as written; N and C are the ends. Square brackets hold non-standard residues; d marks the D form. Peptide text beside a SMILES is read from it. I, II: the chains in the order shown. Actinocin(9to1) = Cc1c2oc3c(C)ccc(C(=O)[*:1])c3nc-2c(C(=O)[*:2])c(N)c1=O; NMeV = CN[C@H](C(=O)O)C(C)C; Sar = CNCC(=O)O

System: HCC1143
Assay: relative JC-1 red fluorescence (viability) vs pre-drug, coculture with fibroblast (fraction); higher = more viable cancer cells
Method: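 JC-1 labelled TNBC cells cocultured 1:1 (1,500 cells each) with CellTrace Violet stained primary or stromal fibroblasts in 384-well plates in FluoroBrite medium, treated with one of 42 anticancer drugs at 0.1, 1, 10 or 100 uM. JC-1 red fluorescence (mitochondrial integrity in cancer cells only) was read by plate reader every 8 h for 72 h. Values are normalised to each well's pre-drug value. The stock of one drug was tenfold lower, so its dose labels may be too high.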

Cc1c2oc3c(C)ccc(C(=O)N[C@@H]4C(=O)N[C@H](C(C)C)C(=O)N5CCC[C@H]5C(=O)N(C)CC(=O)N(C)[C@@H](C(C)C)C(=O)O[C@@H]4C)c3nc-2c(C(=O)N[C@@H]2C(=O)N[C@H](C(C)C)C(=O)N3CCC[C@H]3C(=O)N(C)CC(=O)N(C)[C@@H](C(C)C)C(=O)O[C@@H]2C)c(N)c1=O [Dactinomycin] (I: T[dV]P[Sar][NMeV] / II: T[dV]P[Sar][NMeV]; ester I:1-I:C, II:1-II:C; linker I:N-II:N via Actinocin(9to1))
relative JC-1 red fluorescence
Details | 8 h | 16 h | 24 h | 32 h | 40 h | 48 h | 56 h | 64 h | 72 h
10 µM, coculture fibroblast: C12385 | 0.805 | 0.7134 | 0.632 | 0.5682 | 0.5018 | 0.4762 | 0.455 | 0.43202 | 0.4262
10 µM, coculture fibroblast: H6013 | 0.73 | 0.646 | 0.599 | 0.573 | 0.533 | 0.543 | 0.525 | 0.52 | 0.462
10 µM, coculture fibroblast: H6019 | 0.7603 | 0.636 | 0.548 | 0.472 | 0.422 | 0.404 | 0.374 | 0.36 | 0.353
10 µM, coculture fibroblast: H6076 | 0.789 | 0.75 | 0.679 | 0.641 | 0.562 | 0.53 | 0.497 | 0.465 | 0.483
10 µM, coculture fibroblast: H6231 | 0.802 | 0.833 | 0.819 | 0.781 | 0.755 | 0.731 | 0.696 | 0.674 | 0.68
10 µM, coculture fibroblast: HADF | 0.7231 | 0.636 | 0.5863 | 0.557 | 0.4604 | 0.455 | 0.429 | 0.417 | 0.367
10 µM, coculture fibroblast: HCFa | 0.747 | 0.643 | 0.592 | 0.563 | 0.504 | 0.503 | 0.484 | 0.473 | 0.427
10 µM, coculture fibroblast: HCPF | 0.81 | 0.8221 | 0.762 | 0.665 | 0.655 | 0.608 | 0.565 | 0.536 | 0.537
10 µM, coculture fibroblast: HHSteC | 0.8513 | 0.766 | 0.703 | 0.63 | 0.568 | 0.559 | 0.518 | 0.506 | 0.443
10 µM, coculture fibroblast: HMF | 0.789 | 0.782 | 0.682 | 0.609 | 0.577 | 0.538 | 0.503 | 0.466 | 0.459
10 µM, coculture fibroblast: HPFa | 0.852 | 0.78 | 0.742 | 0.649 | 0.596 | 0.585 | 0.549 | 0.54 | 0.532
10 µM, coculture fibroblast: HUF | 0.854 | 0.755 | 0.672 | 0.561 | 0.485 | 0.461 | 0.416 | 0.392 | 0.377
10 µM, coculture fibroblast: Hs5 | 0.849 | 0.83 | 0.749 | 0.722 | 0.631 | 0.586 | 0.567 | 0.55 | 0.564
10 µM, coculture fibroblast: Hs27A | 0.6875 | 0.603 | 0.548 | 0.541 | 0.47 | 0.502 | 0.482 | 0.478 | 0.397
10 µM, coculture fibroblast: Hs343T | 0.821 | 0.804 | 0.723 | 0.642 | 0.585 | 0.532 | 0.498 | 0.48 | 0.466
10 µM, coculture fibroblast: WS1 | 0.774 | 0.658 | 0.597 | 0.515 | 0.459 | 0.441 | 0.416 | 0.399 | 0.393
100 µM, coculture fibroblast: C12385 | 0.7606 | 0.651 | 0.573 | 0.509 | 0.451 | 0.429 | 0.399 | 0.371 | 0.355
100 µM, coculture fibroblast: H6013 | 0.683 | 0.593 | 0.539 | 0.503 | 0.463 | 0.464 | 0.435 | 0.418 | 0.351
100 µM, coculture fibroblast: H6019 | 0.7744 | 0.681 | 0.619 | 0.537 | 0.487 | 0.479 | 0.45 | 0.425 | 0.417
100 µM, coculture fibroblast: H6076 | 0.746 | 0.683 | 0.616 | 0.58 | 0.521 | 0.505 | 0.477 | 0.4597 | 0.4611
100 µM, coculture fibroblast: H6231 | 0.78 | 0.809 | 0.752 | 0.655 | 0.649 | 0.618 | 0.569 | 0.539 | 0.525
100 µM, coculture fibroblast: HADF | 0.701 | 0.633 | 0.577 | 0.553 | 0.466 | 0.453 | 0.43 | 0.4162 | 0.377
100 µM, coculture fibroblast: HCFa | 0.739 | 0.647 | 0.583 | 0.543 | 0.483 | 0.472 | 0.443 | 0.424 | 0.377
100 µM, coculture fibroblast: HCPF | 0.783 | 0.7787 | 0.731 | 0.642 | 0.614 | 0.565 | 0.527 | 0.501 | 0.498
100 µM, coculture fibroblast: HHSteC | 0.774 | 0.675 | 0.615 | 0.564 | 0.499 | 0.495 | 0.461 | 0.45 | 0.383
100 µM, coculture fibroblast: HMF | 0.758 | 0.785 | 0.707 | 0.616 | 0.588 | 0.557 | 0.51 | 0.479 | 0.466
100 µM, coculture fibroblast: HPFa | 0.85 | 0.75 | 0.702 | 0.611 | 0.562 | 0.564 | 0.534 | 0.532 | 0.521
100 µM, coculture fibroblast: HUF | 0.825 | 0.737 | 0.66 | 0.557 | 0.491 | 0.46 | 0.412 | 0.392 | 0.375
100 µM, coculture fibroblast: Hs5 | 0.8386 | 0.8208 | 0.749 | 0.716 | 0.632 | 0.6 | 0.5775 | 0.561 | 0.562
100 µM, coculture fibroblast: Hs27A | 0.6744 | 0.5649 | 0.514 | 0.508 | 0.415 | 0.435 | 0.4085 | 0.393 | 0.339
100 µM, coculture fibroblast: Hs343T | 0.762 | 0.781 | 0.682 | 0.576 | 0.501 | 0.457 | 0.411 | 0.389 | 0.376
100 µM, coculture fibroblast: WS1 | 0.7788 | 0.672 | 0.595 | 0.519 | 0.461 | 0.452 | 0.423 | 0.409 | 0.4
